Assay results from PMC12040169 (PLOS Biology, 2025).
Some of the results follow.

tested on: T1, CTL2-GFP (C. trachomatis L2/434/Bu, GFP-expressing); set-up: species or system HeLa; Intracellular C. trachomatis growth in HeLa cells, bulk GFP fluorescence relative to DMSO; details: bulk GFP, single well; 28.5 h, 10 µM; inhibitor
T1 construct: L2/434/Bu, GFP-expressing

Row | SMILES | % of control remaining [%]
1 | Cc1ccc(NC(=O)c2ccc(-n3nncc3C)cc2)cc1 [CBK287790] | 128.192
2 | COCCNC(=O)C1(O)c2ccccc2NC(=O)N1c1cccc(OC)c1 (stereo not drawn) [CBK288589] | 135.761
3 | Cc1ccc(SCCNCCN2CCOCC2)cc1 [CBK268581G] | 161.617
4 | COc1ccc(C(=O)OC(C)(C)C)c(-c2cncc(NCc3ccco3)n2)c1 [CBK037751] | 146.078
5 | COc1ccc(C(=O)Nc2ccc(N3CCNCC3)nc2)cc1 [CBK029434T] | 120.262
6 | COC(=O)c1cn(C(=O)c2snnc2C)nc1C(C)(C)C [CBK021420] | 120.085
7 | CCc1noc(C)c1C(=O)NCc1cccnc1N(C)C1CCCCC1 [CBK306804] | 128.389
8 | COc1cccc(NC(=O)CSc2nnc(CC(C)C)n2C)c1 [CBK269626] | 76.7371
9 | CC(C)(C)C(=O)Nc1ccc(C(=O)Nc2cccc(C(=O)O)c2)cc1 [CBK261329] | 115.607
10 | OCCN1CC2(CCN(Cc3cccc(Oc4ccccc4)c3)CC2)c2ccccc21 [CBK131528] | 125.841
11 | CC1(C)C2CCC1(CS(=O)(=O)N(Cc1ccccc1)Cc1ccccc1)C(=O)C2 (stereo not drawn) [CBK266082] | 93.9787
12 | CC(C(=O)c1ccc(-c2ccccc2F)cc1)N1CCN(c2ccc(C#N)cc2)CC1 (stereo not drawn) [CBK074706] | 76.2871
13 | Cc1nn(C)cc1CN1CCCC(c2cc3ccccc3cn2)C1 (stereo not drawn) [CBK285041] | 94.1678
14 | COc1ccc(C2(C(=O)NCc3ccc(Cl)c(Cl)c3)CC2)cc1 [CBK149827] | 91.7426
15 | CCOC(=O)CN1CCC(Oc2cncc(OCc3ccc(Cl)c(Cl)c3)n2)C1 (stereo not drawn) [CBK084432] | 120.757
16 | COc1ccccc1CC(CC(=O)O)C(=O)O (stereo not drawn) [CBK261508] | 100.438
17 | COc1cc2c(cc1OC)CN(C(=O)c1ccccn1)CC2 [CBK115864] | 185.218
18 | COC(=O)CCn1c(-c2ccccn2)cc2cccnc21 [CBK282634] | 109.504
19 | N#CCCN(Cc1ccccc1)C(=O)c1ccccc1[N+](=O)[O-] [CBK264434] | 108.994
20 | CC(=O)Nc1c(O)nc(SCC(=O)Nc2ccc(Cl)cc2)[nH]c1=O [CBK266214] | 97.7977
21 | Nc1c(C(=S)c2cccs2)oc2c1C(c1ccccc1)CC(=O)N2 (stereo not drawn) [CBK020690] | 142.965

Row | SMILES | % of control remaining [%]
22 | CN(CCCc1nc(-c2ccc(Cl)cc2)no1)S(=O)(=O)c1ccc([N+](=O)[O-])cc1 [CBK267365] | 160.042
23 | NCCNc1ccc([N+](=O)[O-])c(Sc2nc3ccccc3[nH]2)c1 [CBK265882] | 109.675
24 | CN(C)C(=O)n1cc(Cl)c(-c2ccccc2)n1 [CBK004985] | 77.0995
25 | CCc1ccc(C(=O)c2ccccc2C(=O)O)cc1 [CBK010776] | 101.517
26 | COc1cc(CN2CCN(Cc3cccc4ccccc34)CC2)c([N+](=O)[O-])cc1OC [CBK074450G] | 110.984
27 | COCC(=O)N1CCN2C(=O)c3ccccc3NC(=O)[C@@H]2C1 [CBK289582] | 137.197
28 | CC(=O)Nc1cccc(-c2cn3ccnc3c(N[C@@H](CO)C(C)C)n2)c1 [CBK036605] | 168.531
29 | CCc1cccc(CC)c1NC(=O)CC1SC(NCc2ccc(C)cc2)=NC1=O (stereo not drawn) [CBK059431] | 104.955
30 | CC(=O)Nc1ccc(CN2CCC[C@H]2c2nc(-c3ccnc(NS(C)(=O)=O)c3)no2)cc1 [CBK288888] | 111.489
31 | O=C1CC(c2nc3ccccc3n2CCc2ccccc2)CN1c1ccccc1 (stereo not drawn) [CBK266311] | 144.167
32 | Sc1nnc(-c2ccncc2)n1/N=C/c1c[nH]c2ccccc12 [CBK265272] | 100
33 | COc1ccc(S(=O)(=O)N(C)c2ccc(C(=O)NCc3ccccn3)cc2)cc1 [CBK269099] | 167.923
34 | CC(C)C(=O)N1CC2(CCN(Cc3nc4ccccc4s3)CC2)c2ccccc21 [CBK136980] | 95.3557
35 | Cc1cc(Cl)ccc1CNC(=O)c1ccc(-c2ccoc2)nc1 [CBK156254] | 115.705
36 | COc1cncc(-c2cncc(N[C@H](CO)C(C)C)n2)c1 [CBK065329] | 135.637
37 | Cc1ccc(OC(C)C(=O)NCc2ccccc2)cc1 (stereo not drawn) [CBK269016] | 162.457
38 | Cn1c2c(c(=O)n(C)c1=O)CN(CCN1CCNCC1)CN2 [CBK265218] | 100
39 | Cc1cc(NC(=O)c2cccc(Br)c2)nc2c1c(=O)oc1ccccc12 [CBK291238] | 146.175
40 | CC(C)C(CNCc1ccc(F)c(Cl)c1)c1ccnn1C (stereo not drawn) [CBK305130] | 95.2002
41 | Cc1nc(CN2CCN(CCc3ccccc3)CC2)cs1 [CBK126457] | 103.722
42 | CCN1CCN(C2CCN(Cc3ccccc3[N+](=O)[O-])CC2)CC1 [CBK264631G] | 100

Filtered by structure: the entries above with a nitro group on carbon
Row | SMILES | % of control remaining [%]
19 | N#CCCN(Cc1ccccc1)C(=O)c1ccccc1[N+](=O)[O-] [CBK264434] | 108.994
22 | CN(CCCc1nc(-c2ccc(Cl)cc2)no1)S(=O)(=O)c1ccc([N+](=O)[O-])cc1 [CBK267365] | 160.042
23 | NCCNc1ccc([N+](=O)[O-])c(Sc2nc3ccccc3[nH]2)c1 [CBK265882] | 109.675
26 | COc1cc(CN2CCN(Cc3cccc4ccccc34)CC2)c([N+](=O)[O-])cc1OC [CBK074450G] | 110.984
42 | CCN1CCN(C2CCN(Cc3ccccc3[N+](=O)[O-])CC2)CC1 [CBK264631G] | 100

(list continues)

Row | SMILES | % of control remaining [%]
43 | O=C(Nc1cccc(Cn2cccn2)c1)c1csc2ccccc12 [CBK268123] | 125.887
44 | COc1cccc(Cc2c(C)nc3c(C(=O)NCCCN4CCCC4=O)cnn3c2C)c1 [CBK162055] | 144.616
45 | Cc1cc(Cl)ccc1CNC(=O)c1ccccc1Nc1cccc(C(F)(F)F)c1 [CBK149544] | 96.2933
46 | O=C(CCCn1cccn1)N1CCCN(Cc2ccc(F)cc2)CC1 [CBK304641] | 115.318
47 | COc1ncc(-c2cnc3[nH]c(=O)n(C4CC4)c3n2)cn1 [CBK064908] | 226.479
48 | CCc1onc(C)c1C(=O)NCC1CCCCN1CC(C)C (stereo not drawn) [CBK305124] | 123.307
49 | Cc1nn(-c2cccc(Br)c2)c(C)c1[C@@H]1C=C[C@@H](NS(C)(=O)=O)C1 [CBK288806] | 160.142
50 | O=C(O)/C(O)=C/C(=O)c1ccc(F)cc1 [CBK261844] | 109.067
51 | Cc1cccc(OCCNC(=O)CN2CCCC2c2cnn(C)c2)c1 (stereo not drawn) [CBK305826] | 153.297
52 | O=C(Nc1ccncc1)OCCc1cccnc1 [CBK200125] | 112.386
53 | Cc1ccc(Cl)cc1NC(=N)NC(=N)N [CBK268049] | 131.077
54 | Cc1cc(C)nc(NC2=NC3CCCCC3N2C(=O)Nc2ccc(Cl)c(Cl)c2)n1 (stereo not drawn) [CBK266458] | 109.383
55 | O=C(CSc1nnc(COc2ccccc2)n1-c1ccccc1)c1cccs1 [CBK265133] | 118.18
56 | CCn1c(CN(C)Cc2cc(C)[nH]n2)nc2ccccc21 [CBK282120] | 119.52
57 | Cc1ccc(SCCNS(=O)(=O)c2cccc([N+](=O)[O-])c2)cc1 [CBK267508] | 133.161
58 | Cn1c(-c2ccccc2)cnc1NC(=O)CC1CCN(C(=O)Cc2ccccc2)CC1 [CBK285966] | 112.17
59 | O=C(O)c1ccc(-n2ccnc2)c(C#Cc2ccccc2)c1 [CBK284502] | 126.352
60 | Oc1ccc(-n2cc(-c3ccc(F)cc3)nn2)cc1 [CBK113126] | 121.88
61 | CCC1CN(C(=O)Cn2cnc3ccc(F)cc3c2=O)CCO1 (stereo not drawn) [CBK305795] | 126.551
62 | O=C(Nc1ccc(Oc2ccccc2)cc1)c1cc([N+](=O)[O-])cc2cn[nH]c12 [CBK293985] | 134.136
63 | Cc1ccc(N2C(=O)CC(Sc3ncccc3C(=O)O)C2=O)cc1 (stereo not drawn) [CBK287761] | 101.802

Row | SMILES | % of control remaining [%]
64 | Nc1nc(N)n(-c2ccccc2)n1 [CBK026515] | 94.2865
65 | CN(c1ncccc1CNC(=O)c1cccnc1)C1CCCCC1 [CBK306555] | 125.997
66 | CC(C)C[C@@H]1N[C@H](C(=O)NCCN(C)C)Cc2c[nH]c3cccc1c23 [CBK289417] | 136.867
67 | COc1ccc(-c2nn(CCC#N)cc2C(=O)N2CCCCC2)cc1 [CBK305834] | 107.992
68 | CCc1ccc(C2CC(=O)c3c(ccc4ccccc34)N2)cc1 (stereo not drawn) [CBK098787] | 100.17
69 | CCCn1cnc2c1CN(C(C)=O)[C@H](C(=O)OC)C2 [CBK288995] | 128.875
70 | COCCNc1nc(-c2cc(OC)c(OC)c(OC)c2)cnc1N [CBK063559] | 132.516
71 | O=C(NC1CCc2ccccc21)N1CCN(CCc2ccccc2)CC1 (stereo not drawn) [CBK158936] | 149.809
72 | CC(CN(C)C)C(=O)c1ccsc1 (stereo not drawn) [CBK025906] | 112.444
73 | CC(C)(O)Cc1ccccc1C(=O)NC1CCCCCC1 [CBK010502] | 127.133
74 | Cc1c(C(=O)N(C(C)C)C2CC2)nnn1-c1ccc2ncccc2c1 [CBK305518] | 97.834
75 | CS(=O)(=O)N1CCC2(CC1)NC(=O)N(Cc1ccccc1)C2=O [CBK287656] | 90.0757
76 | S=c1[nH]nc2ccc(N3CCOCC3)nn12 [CBK008327] | 94.1141
77 | OC[C@H]1O[C@@H](n2cnc3cncnc32)C[C@H]1O [CBK201243] | 178.226
78 | CC12CN3CC(C)(CN(C1)C3c1cccc([N+](=O)[O-])c1)C2=O (stereo not drawn) [CBK009030] | 125.339
79 | CN(C)S(=O)(=O)c1cccc(-c2cn3cccnc3n2)c1 [CBK267580] | 95.5759
80 | CC(C)(C)C1CCC(OC(=O)CCC(=O)O)CC1 (stereo not drawn) [CBK026882] | 103.403
81 | Brc1nc2c3c(nc(N4CCOCC4)c2s1)CCCC3 [CBK019604] | 101.516
